Publication PMC2941750
No constants are given. Whether binding was seen depends on the method and setting. In cells and extracts the contact can be indirect. Some results given as binding are weak or reduced against the parent protein; the word gives no strength.

Sequences of proteins named here, by UniProt entry; tags and fusion partners are left off.
UniProt Q9HAU4: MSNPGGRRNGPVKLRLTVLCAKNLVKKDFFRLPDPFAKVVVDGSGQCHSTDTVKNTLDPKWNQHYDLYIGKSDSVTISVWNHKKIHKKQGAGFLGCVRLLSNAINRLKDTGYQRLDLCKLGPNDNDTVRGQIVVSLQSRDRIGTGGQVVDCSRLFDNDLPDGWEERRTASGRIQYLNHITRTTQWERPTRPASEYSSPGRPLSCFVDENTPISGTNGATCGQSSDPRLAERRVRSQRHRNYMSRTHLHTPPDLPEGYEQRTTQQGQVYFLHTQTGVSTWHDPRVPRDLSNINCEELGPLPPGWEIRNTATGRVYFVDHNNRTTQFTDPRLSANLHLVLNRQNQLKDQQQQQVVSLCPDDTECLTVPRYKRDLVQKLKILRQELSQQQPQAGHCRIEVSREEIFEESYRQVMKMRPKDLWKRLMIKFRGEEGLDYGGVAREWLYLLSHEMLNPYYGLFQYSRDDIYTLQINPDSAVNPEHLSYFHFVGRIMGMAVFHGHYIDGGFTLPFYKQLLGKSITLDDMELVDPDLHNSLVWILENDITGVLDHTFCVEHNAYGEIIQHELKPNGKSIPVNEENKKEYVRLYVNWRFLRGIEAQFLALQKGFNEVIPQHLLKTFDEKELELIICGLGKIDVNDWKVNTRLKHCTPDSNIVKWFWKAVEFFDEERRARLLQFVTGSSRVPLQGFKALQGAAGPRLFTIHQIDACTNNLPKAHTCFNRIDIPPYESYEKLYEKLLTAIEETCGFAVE

T1: NEDD9 (neural precursor cell expressed, developmentally down-regulated 9) (human (endogenous in HeLa)) (UniProt Q14511)
T1 sequence: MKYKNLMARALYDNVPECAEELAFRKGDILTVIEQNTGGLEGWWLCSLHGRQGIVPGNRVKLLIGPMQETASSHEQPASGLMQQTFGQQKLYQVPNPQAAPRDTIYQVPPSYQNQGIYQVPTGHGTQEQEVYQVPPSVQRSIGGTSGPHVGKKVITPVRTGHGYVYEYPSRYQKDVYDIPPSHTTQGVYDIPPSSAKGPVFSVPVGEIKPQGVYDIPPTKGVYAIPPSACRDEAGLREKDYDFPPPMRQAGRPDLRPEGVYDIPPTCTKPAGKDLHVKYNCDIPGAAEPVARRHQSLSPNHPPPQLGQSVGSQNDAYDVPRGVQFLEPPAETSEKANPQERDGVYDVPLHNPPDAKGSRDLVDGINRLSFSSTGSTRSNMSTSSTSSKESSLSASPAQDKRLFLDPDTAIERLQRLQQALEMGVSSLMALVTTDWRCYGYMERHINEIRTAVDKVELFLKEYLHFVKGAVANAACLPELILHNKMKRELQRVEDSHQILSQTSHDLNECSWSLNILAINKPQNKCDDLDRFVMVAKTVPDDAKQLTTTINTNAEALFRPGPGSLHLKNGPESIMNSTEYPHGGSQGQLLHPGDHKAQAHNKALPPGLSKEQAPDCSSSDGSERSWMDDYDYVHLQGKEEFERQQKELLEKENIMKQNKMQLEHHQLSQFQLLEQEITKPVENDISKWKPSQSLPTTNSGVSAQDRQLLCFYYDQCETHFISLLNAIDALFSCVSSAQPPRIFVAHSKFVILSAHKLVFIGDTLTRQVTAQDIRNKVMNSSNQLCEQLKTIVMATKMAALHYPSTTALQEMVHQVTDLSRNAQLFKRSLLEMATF


Assays:
[1] = target: T1, NEDD9 (neural precursor cell expressed, developmentally down-regulated 9) (human (endogenous in HeLa)); test: co-IP; endogenous proteins from HeLa extracts, asynchronous or synchronized at mitosis by thymidine-nocodazole; 400 ug total protein with 1.5 ug antibody overnight at 4°C, protein A (Smurf2 IP) or protein G (NEDD9 IP) beads 1 h at 4°C; immunoblotting; normal IgG as control; co-precipitation less obvious in asynchronous cells
[2] = target: Smurf2 (Smad ubiquitination regulatory factor 2) (human (endogenous in HeLa)) (UniProt Q9HAU4); test: as above

binding [1]	binding [2]	Molecule
binds		Smurf2 (Smad ubiquitination regulatory factor 2) (from UniProt Q9HAU4 1-748)
	binds	NEDD9 (neural precursor cell expressed, developmentally down-regulated 9) (protein, UniProt Q14511 1-834) MKYKNLMARALYDNVPECAEELAFRKGDILTVIEQNTGGLEGWWLCSLHGRQGIVPGNRVKLLIGPMQETASSHEQPASGLMQQTFGQQKLYQVPNPQAAPRDTIYQVPPSYQNQGIYQVPTGHGTQEQEVYQVPPSVQRSIGGTSGPHVGKKVITPVRTGHGYVYEYPSRYQKDVYDIPPSHTTQGVYDIPPSSAKGPVFSVPVGEIKPQGVYDIPPTKGVYAIPPSACRDEAGLREKDYDFPPPMRQAGRPDLRPEGVYDIPPTCTKPAGKDLHVKYNCDIPGAAEPVARRHQSLSPNHPPPQLGQSVGSQNDAYDVPRGVQFLEPPAETSEKANPQERDGVYDVPLHNPPDAKGSRDLVDGINRLSFSSTGSTRSNMSTSSTSSKESSLSASPAQDKRLFLDPDTAIERLQRLQQALEMGVSSLMALVTTDWRCYGYMERHINEIRTAVDKVELFLKEYLHFVKGAVANAACLPELILHNKMKRELQRVEDSHQILSQTSHDLNECSWSLNILAINKPQNKCDDLDRFVMVAKTVPDDAKQLTTTINTNAEALFRPGPGSLHLKNGPESIMNSTEYPHGGSQGQLLHPGDHKAQAHNKALPPGLSKEQAPDCSSSDGSERSWMDDYDYVHLQGKEEFERQQKELLEKENIMKQNKMQLEHHQLSQFQLLEQEITKPVENDISKWKPSQSLPTTNSGVSAQDRQLLCFYYDQCETHFISLLNAIDALFSCVSSAQPPRIFVAHSKFVILSAHKLVFIGDTLTRQVTAQDIRNKVMNSSNQLCEQLKTIVMATKMAALHYPSTTALQEMVHQVTDLSRNAQLFKRSLLEMATF
